Data taken from PubChem BioAssay AID1053133, deposited by Broad Institute (2014).

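Vaccinia-infected cells with a two-color viral stage reporter; Venus fluorescence read on a plate reader; the cell line is not named here; timing not stated here.
The test concentration is not given here.
Percent change in Venus reporter signal; lower (more negative) values mean stronger inhibition of that viral stage.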

Values are in %.
The controls that fix the scale are not given here.
Common to all entries: measured here: Venus reporter, other viral stage.
This is a side read-out of the assay, for part of the compounds, not drawn at random.

compound: C[C@H]1CN([C@@H](C)CO)C(=O)c2cc(-c3ccc(C#N)cc3)cnc2O[C@H]1CN(C)C(=O)Nc1ccc(C(F)(F)F)cc1
activity change (Venus) (%): -52.96

compound: C[C@@H]1CN([C@H](C)CO)S(=O)(=O)c2ccc(C#Cc3ccccc3F)cc2O[C@H]1CN(C)C(=O)Cc1cccnc1
activity change (Venus) (%): -26.05

compound: CC(C)NC(=O)N1CCCCN2[C@@H](CO)[C@@H](c3ccc(C#Cc4ccccc4)cc3)[C@@H]2C1
activity change (Venus) (%): -76.92

compound: COc1ccc2c3c(n(C)c2c1)[C@H](CO)N(C(=O)c1cccc(F)c1)CC31CCN(C(=O)c2cccc(F)c2)CC1
activity change (Venus) (%): -38.3

compound: Cc1ccc(S(=O)(=O)Nc2ccc3c(c2)C(=O)N([C@@H](C)CO)C[C@H](C)[C@H](CN(C)C(=O)Cc2ccccc2)OCCCC[C@H](C)O3)cc1
activity change (Venus) (%): -37.33

compound: C[C@@H]1CN([C@H](C)CO)S(=O)(=O)c2ccc(C#CC3CCCCC3)cc2O[C@@H]1CN(C)C
activity change (Venus) (%): -82.35

compound: COc1ccccc1C#Cc1ccc([C@H]2[C@@H](C#N)N(C(=O)C3CCCCC3)[C@@H]2CO)cc1
activity change (Venus) (%): -39.43

compound: Cc1ccc(S(=O)(=O)Nc2ccc3c(c2)C(=O)N([C@@H](C)CO)C[C@H](C)[C@@H](CN(C)C(=O)Nc2ccc4c(c2)OCO4)OCCCC[C@@H](C)O3)cc1
activity change (Venus) (%): -24.27

compound: C[C@@H]1CN([C@@H](C)CO)C(=O)c2cccc(NC(=O)C3CCCCC3)c2O[C@H]1CN(C)Cc1ccc(Oc2ccccc2)cc1
activity change (Venus) (%): -69.87

compound: CO[C@@H]1CN(C)C(=O)c2cc(NC(=O)Nc3ccccc3F)ccc2OC[C@@H](C)N(CC2CC2)C[C@H]1C
activity change (Venus) (%): -30.53

compound: C[C@H]1CN([C@@H](C)CO)S(=O)(=O)c2ccc(C#Cc3ccc(F)cc3)cc2O[C@@H]1CN(C)C(=O)NC1CCCCC1
activity change (Venus) (%): -61.13

compound: COc1cccc(C#Cc2ccc3c(c2)O[C@@H](CN(C)C(=O)CN2CCOCC2)[C@@H](C)CN([C@@H](C)CO)S3(=O)=O)c1
activity change (Venus) (%): -30.82

compound: Cc1noc(C)c1NC(=O)Nc1ccc2c(c1)CC(=O)N([C@@H](C)CO)C[C@H](C)[C@H](CN(C)Cc1ccc(C(F)(F)F)cc1)O2
activity change (Venus) (%): -55.97

compound: C[C@H]1CN([C@@H](C)CO)S(=O)(=O)c2ccc(C3=CCCC3)cc2O[C@@H]1CN(C)C(=O)Nc1ccc2c(c1)OCO2
activity change (Venus) (%): -44.87

compound: CC(C)NC(=O)Nc1ccc2c(c1)C(=O)N([C@@H](C)CO)C[C@@H](C)[C@H](CN(C)Cc1ccc(Cl)c(Cl)c1)OCCCC[C@@H](C)O2
activity change (Venus) (%): -82.01

compound: COc1ccccc1S(=O)(=O)N(C)C[C@H]1Oc2cc(C#CCC3CCCC3)ccc2S(=O)(=O)N([C@@H](C)CO)C[C@H]1C
activity change (Venus) (%): -34.74

compound: O=C(C[C@H]1CC[C@@H]2[C@H](COC[C@@H](O)CN2Cc2ccc(C(F)(F)F)cc2)O1)NCCc1ccccc1
activity change (Venus) (%): -28.27

compound: Cc1ccc(-c2ccc3c(c2)O[C@H](CN(C)Cc2ccccn2)[C@@H](C)CN([C@H](C)CO)S3(=O)=O)cc1
activity change (Venus) (%): -38.87

compound: CC(C)NC(=O)N(C)C[C@H]1Oc2cc(C#Cc3ccc(F)cc3)ccc2S(=O)(=O)N([C@H](C)CO)C[C@H]1C
activity change (Venus) (%): -29.92

compound: C[C@@H]1CN([C@H](C)CO)C(=O)Cc2cc(NC(=O)NC3CCCCC3)ccc2O[C@H]1CN(C)CC1CCCCC1
activity change (Venus) (%): -74.56

compound: COc1ccc(S(=O)(=O)Nc2ccc3c(c2)C(=O)N([C@H](C)CO)C[C@@H](C)[C@H](CN(C)Cc2ccc(C(F)(F)F)cc2)OCCCC[C@H](C)O3)cc1
activity change (Venus) (%): -92.59

compound: C[C@H](CO)N1C[C@H](C)[C@H](CN(C)Cc2ccc(-c3ccccc3)cc2)Oc2ccc(NC(=O)Nc3ccc(F)cc3)cc2C1=O
activity change (Venus) (%): -39.69

Once more, the final 2:

compound	activity change (Venus) (%)
COc1ccc(S(=O)(=O)Nc2ccc3c(c2)C(=O)N([C@H](C)CO)C[C@@H](C)[C@H](CN(C)Cc2ccc(C(F)(F)F)cc2)OCCCC[C@H](C)O3)cc1	-92.59
C[C@H](CO)N1C[C@H](C)[C@H](CN(C)Cc2ccc(-c3ccccc3)cc2)Oc2ccc(NC(=O)Nc3ccc(F)cc3)cc2C1=O	-39.69